In PMC4451243:
These are yes or no findings as the source states them, for the method shown. In cells and extracts the contact can be indirect. Some entries that bind do so weakly or less than the wild type. For some of these results: Where a sequence is shown, tags or fusion partners need not be part of it.

Chains of the proteins cited; added tags and fusions are not shown.
UniProt O00571: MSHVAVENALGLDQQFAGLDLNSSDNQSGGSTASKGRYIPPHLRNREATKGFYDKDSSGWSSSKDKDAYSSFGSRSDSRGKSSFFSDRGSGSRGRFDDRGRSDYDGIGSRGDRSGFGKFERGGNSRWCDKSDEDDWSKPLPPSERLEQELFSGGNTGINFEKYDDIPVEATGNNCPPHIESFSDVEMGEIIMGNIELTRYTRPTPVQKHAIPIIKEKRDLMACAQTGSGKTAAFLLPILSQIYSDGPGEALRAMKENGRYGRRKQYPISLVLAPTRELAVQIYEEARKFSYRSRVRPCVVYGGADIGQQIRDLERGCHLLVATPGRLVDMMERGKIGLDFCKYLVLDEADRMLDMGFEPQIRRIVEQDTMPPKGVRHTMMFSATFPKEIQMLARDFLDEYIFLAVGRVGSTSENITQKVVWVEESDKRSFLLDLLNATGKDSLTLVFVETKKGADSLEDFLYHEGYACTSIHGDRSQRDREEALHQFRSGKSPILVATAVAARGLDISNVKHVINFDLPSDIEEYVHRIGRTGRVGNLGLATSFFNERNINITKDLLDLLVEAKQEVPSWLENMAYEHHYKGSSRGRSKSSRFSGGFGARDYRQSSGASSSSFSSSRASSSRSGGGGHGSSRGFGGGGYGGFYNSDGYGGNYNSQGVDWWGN
UniProt Q93009: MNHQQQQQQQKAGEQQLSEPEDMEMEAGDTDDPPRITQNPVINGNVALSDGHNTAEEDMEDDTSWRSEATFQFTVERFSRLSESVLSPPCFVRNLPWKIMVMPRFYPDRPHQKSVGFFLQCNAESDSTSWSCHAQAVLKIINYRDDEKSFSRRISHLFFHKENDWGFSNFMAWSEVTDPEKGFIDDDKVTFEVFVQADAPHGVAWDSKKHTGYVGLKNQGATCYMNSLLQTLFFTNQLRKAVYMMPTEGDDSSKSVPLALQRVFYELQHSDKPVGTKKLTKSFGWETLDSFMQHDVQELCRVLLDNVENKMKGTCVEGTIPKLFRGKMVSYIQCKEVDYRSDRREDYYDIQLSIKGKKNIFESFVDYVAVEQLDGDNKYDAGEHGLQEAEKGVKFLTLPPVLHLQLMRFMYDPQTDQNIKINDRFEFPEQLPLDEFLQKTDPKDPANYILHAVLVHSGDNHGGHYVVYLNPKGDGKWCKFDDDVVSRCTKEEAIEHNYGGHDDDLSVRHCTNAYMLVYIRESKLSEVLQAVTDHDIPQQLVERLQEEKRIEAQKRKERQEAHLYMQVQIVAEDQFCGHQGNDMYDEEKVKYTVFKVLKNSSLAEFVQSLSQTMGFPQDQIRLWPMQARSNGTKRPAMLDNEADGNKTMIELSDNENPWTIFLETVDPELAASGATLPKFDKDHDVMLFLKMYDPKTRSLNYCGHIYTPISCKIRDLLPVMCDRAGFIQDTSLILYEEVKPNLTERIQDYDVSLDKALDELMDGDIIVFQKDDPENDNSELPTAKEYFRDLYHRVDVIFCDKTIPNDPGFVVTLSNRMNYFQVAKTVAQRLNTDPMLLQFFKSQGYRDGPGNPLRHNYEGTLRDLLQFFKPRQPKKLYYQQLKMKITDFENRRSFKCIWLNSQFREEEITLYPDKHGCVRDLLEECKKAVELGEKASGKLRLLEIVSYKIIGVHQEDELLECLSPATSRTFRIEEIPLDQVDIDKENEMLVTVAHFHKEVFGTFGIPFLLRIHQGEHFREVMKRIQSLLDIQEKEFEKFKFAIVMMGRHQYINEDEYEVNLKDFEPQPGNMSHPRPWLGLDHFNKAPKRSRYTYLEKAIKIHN
UniProt Q86VP6: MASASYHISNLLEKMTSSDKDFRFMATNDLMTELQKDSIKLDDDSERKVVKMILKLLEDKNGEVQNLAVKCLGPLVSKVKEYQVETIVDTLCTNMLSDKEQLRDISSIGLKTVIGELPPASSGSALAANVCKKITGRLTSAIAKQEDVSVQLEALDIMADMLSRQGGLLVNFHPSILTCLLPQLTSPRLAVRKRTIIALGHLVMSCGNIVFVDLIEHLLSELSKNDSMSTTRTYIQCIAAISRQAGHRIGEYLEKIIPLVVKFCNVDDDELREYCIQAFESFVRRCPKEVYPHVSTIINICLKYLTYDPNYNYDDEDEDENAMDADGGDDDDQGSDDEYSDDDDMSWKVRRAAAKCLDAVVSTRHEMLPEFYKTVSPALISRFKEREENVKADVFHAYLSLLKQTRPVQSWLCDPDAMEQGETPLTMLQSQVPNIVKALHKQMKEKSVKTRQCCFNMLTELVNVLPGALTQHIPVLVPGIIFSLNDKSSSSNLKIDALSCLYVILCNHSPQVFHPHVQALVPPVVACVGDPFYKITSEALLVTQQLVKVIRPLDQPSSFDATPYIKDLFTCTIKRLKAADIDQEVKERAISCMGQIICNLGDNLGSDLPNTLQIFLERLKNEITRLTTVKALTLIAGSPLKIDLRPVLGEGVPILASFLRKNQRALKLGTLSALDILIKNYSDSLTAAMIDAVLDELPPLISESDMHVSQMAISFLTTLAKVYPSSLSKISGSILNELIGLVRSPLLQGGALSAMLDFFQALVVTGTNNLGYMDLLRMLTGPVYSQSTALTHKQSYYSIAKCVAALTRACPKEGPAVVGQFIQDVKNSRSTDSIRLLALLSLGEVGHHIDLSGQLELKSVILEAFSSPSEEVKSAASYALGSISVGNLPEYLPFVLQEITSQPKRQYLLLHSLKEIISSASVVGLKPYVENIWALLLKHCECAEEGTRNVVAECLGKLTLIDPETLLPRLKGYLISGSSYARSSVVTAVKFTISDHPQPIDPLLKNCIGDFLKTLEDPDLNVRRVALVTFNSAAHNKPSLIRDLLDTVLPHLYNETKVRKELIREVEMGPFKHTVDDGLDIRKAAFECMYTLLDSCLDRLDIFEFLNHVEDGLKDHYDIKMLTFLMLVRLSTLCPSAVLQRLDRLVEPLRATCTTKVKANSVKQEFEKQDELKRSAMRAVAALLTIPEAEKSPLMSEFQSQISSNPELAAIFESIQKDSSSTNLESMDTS
UniProt P17844: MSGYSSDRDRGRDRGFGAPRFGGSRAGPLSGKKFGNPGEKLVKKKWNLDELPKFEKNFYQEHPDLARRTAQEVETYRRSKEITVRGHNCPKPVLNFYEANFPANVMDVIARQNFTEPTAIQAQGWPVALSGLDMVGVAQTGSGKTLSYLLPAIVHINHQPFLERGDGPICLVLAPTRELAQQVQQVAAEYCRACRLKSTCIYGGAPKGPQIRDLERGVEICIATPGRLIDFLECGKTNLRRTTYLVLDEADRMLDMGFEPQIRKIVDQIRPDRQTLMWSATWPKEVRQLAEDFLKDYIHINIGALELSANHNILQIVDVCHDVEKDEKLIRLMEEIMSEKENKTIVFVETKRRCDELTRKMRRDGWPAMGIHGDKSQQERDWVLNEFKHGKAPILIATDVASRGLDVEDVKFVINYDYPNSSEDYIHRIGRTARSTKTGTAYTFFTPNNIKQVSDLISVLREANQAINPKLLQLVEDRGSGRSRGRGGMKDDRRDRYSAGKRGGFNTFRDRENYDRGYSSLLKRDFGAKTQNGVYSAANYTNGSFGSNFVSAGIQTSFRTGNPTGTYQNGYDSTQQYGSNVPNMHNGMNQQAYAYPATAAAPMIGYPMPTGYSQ
UniProt P13010: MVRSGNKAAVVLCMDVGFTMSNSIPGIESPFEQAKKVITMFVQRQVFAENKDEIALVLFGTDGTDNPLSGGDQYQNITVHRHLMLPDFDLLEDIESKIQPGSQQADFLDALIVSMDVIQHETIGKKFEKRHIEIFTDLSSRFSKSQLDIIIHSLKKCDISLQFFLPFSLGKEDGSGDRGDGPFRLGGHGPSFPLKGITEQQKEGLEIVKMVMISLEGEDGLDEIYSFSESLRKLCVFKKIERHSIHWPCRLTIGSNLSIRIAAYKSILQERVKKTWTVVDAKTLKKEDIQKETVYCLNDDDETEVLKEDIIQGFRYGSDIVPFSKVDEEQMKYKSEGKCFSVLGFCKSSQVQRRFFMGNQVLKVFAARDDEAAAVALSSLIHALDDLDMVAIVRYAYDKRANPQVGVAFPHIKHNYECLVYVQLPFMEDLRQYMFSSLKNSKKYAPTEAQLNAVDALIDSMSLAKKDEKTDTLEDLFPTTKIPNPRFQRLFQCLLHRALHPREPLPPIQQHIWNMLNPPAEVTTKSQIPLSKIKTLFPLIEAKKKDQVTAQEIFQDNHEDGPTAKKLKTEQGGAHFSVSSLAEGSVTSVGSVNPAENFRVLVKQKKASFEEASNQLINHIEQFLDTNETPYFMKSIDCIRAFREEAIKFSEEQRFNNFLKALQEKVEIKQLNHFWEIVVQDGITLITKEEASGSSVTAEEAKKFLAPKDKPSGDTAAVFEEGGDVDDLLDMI
UniProt Q03468: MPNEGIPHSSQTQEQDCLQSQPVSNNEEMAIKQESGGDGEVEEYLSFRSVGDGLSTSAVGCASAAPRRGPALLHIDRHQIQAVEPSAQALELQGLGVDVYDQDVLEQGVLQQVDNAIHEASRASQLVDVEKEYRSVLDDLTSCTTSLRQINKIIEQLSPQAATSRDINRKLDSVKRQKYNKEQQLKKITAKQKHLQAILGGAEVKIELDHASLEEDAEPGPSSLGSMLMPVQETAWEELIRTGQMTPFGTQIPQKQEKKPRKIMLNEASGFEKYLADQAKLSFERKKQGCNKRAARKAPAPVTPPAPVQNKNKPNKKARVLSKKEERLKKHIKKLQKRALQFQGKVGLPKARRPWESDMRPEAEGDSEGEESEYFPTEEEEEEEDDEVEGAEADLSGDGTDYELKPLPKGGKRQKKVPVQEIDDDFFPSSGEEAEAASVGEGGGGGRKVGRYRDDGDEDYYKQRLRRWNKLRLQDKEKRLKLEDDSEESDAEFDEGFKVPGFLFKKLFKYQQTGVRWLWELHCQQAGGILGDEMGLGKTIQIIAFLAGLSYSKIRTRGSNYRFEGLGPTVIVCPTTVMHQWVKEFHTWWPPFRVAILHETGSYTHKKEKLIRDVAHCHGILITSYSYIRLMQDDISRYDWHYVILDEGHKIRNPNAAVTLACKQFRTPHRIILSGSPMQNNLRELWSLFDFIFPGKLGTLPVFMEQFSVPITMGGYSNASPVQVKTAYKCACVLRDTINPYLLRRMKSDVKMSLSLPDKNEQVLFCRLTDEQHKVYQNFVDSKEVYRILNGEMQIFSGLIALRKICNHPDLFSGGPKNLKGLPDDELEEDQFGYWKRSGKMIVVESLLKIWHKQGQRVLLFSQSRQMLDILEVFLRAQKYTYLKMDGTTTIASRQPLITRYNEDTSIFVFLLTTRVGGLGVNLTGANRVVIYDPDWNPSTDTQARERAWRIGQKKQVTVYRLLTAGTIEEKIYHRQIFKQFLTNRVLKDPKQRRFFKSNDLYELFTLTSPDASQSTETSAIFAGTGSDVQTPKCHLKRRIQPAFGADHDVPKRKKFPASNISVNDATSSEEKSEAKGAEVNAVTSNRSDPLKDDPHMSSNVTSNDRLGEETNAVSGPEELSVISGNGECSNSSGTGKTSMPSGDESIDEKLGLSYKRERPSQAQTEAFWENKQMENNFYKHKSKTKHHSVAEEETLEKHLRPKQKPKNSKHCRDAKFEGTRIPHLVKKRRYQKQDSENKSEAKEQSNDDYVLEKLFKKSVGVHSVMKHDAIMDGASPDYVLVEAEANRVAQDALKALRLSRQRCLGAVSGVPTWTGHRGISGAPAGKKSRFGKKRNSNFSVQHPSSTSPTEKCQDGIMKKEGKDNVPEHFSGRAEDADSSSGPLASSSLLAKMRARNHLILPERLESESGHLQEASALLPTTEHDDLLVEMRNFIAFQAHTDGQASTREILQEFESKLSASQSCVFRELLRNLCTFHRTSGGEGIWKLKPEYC

Assays:
Test in all cases: co-IP; lysates (RIPA buffer) of CSIAN cells co-transfected with Flag-tagged CSB and a Myc-tagged protein, 24 hr post transfection; anti-c-myc agarose overnight; Western blot with anti-Flag
Myc-tagged DDX3X (human) = Myc-tagged DDX3X (human) (UniProt O00571)
Myc-tagged USP7 (human) = Myc-tagged USP7 (human) (UniProt Q93009)
Myc-tagged CAND1 (human) = Myc-tagged CAND1 (human) (UniProt Q86VP6)
Myc-tagged DDX5 (human) = Myc-tagged DDX5 (human) (UniProt P17844)
Myc-tagged SFPQ (human) = target: T1, Myc-tagged SFPQ (human) (UniProt P23246)
T1 sequence: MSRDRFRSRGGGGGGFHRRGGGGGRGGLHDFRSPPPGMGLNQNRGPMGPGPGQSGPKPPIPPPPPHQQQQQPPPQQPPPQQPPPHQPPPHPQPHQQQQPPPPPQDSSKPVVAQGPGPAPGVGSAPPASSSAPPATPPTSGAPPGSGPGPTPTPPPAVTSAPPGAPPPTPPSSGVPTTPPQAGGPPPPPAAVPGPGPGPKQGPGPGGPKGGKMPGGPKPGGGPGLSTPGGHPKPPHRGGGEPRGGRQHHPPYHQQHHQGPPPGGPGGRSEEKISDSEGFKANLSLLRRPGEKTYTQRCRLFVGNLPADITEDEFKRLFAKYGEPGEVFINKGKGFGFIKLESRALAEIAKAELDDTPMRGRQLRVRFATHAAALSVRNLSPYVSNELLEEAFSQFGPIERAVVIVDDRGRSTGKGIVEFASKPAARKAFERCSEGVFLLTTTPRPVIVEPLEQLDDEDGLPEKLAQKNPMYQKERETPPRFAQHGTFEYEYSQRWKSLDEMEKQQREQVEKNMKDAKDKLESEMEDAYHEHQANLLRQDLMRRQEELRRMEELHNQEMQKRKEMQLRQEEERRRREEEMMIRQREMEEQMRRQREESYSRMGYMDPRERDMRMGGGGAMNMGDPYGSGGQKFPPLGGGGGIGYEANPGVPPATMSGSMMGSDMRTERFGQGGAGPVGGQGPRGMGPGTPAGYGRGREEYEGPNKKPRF

Myc-tagged XRCC5 (human) = Myc-tagged XRCC5 (human) (UniProt P13010)
Myc-tagged DHX36 (human) = target: T2, Myc-tagged DHX36 (human) (UniProt Q9H2U1)
T2 sequence: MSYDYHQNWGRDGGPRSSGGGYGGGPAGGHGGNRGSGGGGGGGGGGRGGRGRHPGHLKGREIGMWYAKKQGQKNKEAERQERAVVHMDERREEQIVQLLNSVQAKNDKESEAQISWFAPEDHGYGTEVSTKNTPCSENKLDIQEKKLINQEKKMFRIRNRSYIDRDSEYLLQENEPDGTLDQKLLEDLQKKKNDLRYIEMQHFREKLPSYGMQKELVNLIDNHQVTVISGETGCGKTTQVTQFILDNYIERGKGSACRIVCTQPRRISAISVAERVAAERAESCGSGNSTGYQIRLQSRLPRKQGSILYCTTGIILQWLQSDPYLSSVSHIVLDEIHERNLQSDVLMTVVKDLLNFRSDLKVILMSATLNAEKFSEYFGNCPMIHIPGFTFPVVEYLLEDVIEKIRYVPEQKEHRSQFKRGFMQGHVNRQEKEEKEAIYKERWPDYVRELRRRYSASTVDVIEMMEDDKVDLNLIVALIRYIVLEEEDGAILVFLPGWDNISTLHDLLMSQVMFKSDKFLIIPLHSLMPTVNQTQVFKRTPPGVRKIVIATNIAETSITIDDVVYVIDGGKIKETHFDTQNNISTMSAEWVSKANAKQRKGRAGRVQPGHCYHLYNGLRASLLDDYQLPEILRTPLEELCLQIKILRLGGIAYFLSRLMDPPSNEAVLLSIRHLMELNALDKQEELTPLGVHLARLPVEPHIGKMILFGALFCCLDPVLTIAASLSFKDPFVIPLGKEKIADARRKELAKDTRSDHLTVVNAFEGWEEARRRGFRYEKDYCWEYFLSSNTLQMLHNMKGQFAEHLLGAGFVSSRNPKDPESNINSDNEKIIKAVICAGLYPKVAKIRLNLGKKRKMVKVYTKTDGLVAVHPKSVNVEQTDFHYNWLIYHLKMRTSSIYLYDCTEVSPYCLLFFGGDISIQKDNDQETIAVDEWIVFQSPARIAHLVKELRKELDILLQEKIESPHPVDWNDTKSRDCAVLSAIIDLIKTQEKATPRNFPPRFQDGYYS

Measured: binding

Flag-tagged CSB (from UniProt Q03468 1-1493)
binds: all assays above
